The experiment has as its target T1, Ssz1 (wild type, subunit of wt RAC) (yeast) (UniProt P38788).
T1 sequence: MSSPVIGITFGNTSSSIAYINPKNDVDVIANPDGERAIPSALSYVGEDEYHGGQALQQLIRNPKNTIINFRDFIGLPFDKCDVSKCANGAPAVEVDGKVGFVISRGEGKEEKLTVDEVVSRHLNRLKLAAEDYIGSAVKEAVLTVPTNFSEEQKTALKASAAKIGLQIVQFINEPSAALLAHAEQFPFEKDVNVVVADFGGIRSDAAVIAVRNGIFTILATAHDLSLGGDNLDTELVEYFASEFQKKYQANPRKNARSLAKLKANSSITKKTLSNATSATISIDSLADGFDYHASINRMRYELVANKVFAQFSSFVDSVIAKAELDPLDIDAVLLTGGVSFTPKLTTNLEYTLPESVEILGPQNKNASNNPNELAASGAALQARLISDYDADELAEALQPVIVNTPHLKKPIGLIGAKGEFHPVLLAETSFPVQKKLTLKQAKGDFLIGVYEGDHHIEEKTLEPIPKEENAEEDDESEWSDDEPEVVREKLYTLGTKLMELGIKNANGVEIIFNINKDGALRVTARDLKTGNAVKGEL
Nature of the experiment: co-purification (Ni-IDA affinity, anion exchange, size exclusion); Ssz1 and Zuo1 co-expressed in E. coli; complex held on Ni-IDA by His6-SUMO on Ssz1, washed with 100 mM and 1 M KAc, eluted with 300 mM imidazole; His6-SUMO removed by Ulp1; then ResourceQ and HiLoad Superdex 200 in 40 mM HEPES pH 7.4, 100 mM KAc, 5 mM MgCl2, 5% glycerol. (SEC sorts molecules by how far they enter the pores of the column.)

No constants are given. Whether binding was seen depends on the method and setting. Some binding calls cover weakened binding; strength is not graded here.

B1: Zuo1 (wild type, subunit of wt RAC) (protein, UniProt P32527 1-433)
chain: MFSLPTLTSDITVEVNSSATKTPFVRRPVEPVGKFFLQHAQRTLRNHTWSEFERIEAEKNVKTVDESNVDPDELLFDTELADEDLLTHDARDWKTADLYAAMGLSKLRFRATESQIIKAHRKQVVKYHPDKQSAAGGSLDQDGFFKIIQKAFETLTDSNKRAQYDSCDFVADVPPPKKGTDYDFYEAWGPVFEAEARFSKKTPIPSLGNKDSSKKEVEQFYAFWHRFDSWRTFEFLDEDVPDDSSNRDHKRYIERKNKAARDKKKTADNARLVKLVERAVSEDPRIKMFKEEEKKEKERRKWEREAGARAEAEAKAKAEAEAKAKAESEAKANASAKADKKKAKEAAKAAKKKNKRAIRNSAKEADYFGDADKATTIDEQVGLIVDSLNDEELVSTADKIKANAAGAKEVLKESAKTIVDSGKLPSSLLSYFV
Consider B1, for which the binding result was “binds”.
